From paper PMC4549032 come the findings set out here.

By UniProt entry, the sequences of proteins in these tests, tags left out.
UniProt Q8VI67: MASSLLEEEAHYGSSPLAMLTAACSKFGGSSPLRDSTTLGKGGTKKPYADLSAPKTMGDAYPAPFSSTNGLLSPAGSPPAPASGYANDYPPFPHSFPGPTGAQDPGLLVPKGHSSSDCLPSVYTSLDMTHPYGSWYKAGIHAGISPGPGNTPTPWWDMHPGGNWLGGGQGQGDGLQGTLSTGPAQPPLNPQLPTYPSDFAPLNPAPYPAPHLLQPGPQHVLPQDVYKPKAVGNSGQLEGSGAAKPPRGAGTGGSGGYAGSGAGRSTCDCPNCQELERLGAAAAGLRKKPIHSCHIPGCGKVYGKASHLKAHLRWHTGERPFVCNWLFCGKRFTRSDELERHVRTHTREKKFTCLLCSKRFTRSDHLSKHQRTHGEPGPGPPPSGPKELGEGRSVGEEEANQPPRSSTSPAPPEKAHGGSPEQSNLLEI
UniProt Q9WUD1: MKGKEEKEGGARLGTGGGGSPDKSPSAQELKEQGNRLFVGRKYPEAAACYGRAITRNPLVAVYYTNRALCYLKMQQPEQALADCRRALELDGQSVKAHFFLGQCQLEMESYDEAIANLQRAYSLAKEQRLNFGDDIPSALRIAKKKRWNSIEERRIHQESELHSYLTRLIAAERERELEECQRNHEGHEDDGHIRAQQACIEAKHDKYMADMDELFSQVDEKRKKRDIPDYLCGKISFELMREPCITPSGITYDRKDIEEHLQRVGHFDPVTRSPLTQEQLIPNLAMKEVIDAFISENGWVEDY

No constants are given. Whether binding was seen depends on the method and setting. Binding seen in cells or lysates may run through a third protein. Some results given as binding are weak or reduced against the parent protein; the word gives no strength.

The target of assay [1] is Flag-tagged Osx (osterix), wild type (mouse) (UniProt Q8VI67). Briefly: co-IP; 293T cells transfected with Flag-Osx and HA-CHIP; IP with anti-Flag, blot with anti-HA.
Assay [2] has the same target. Briefly: co-IP; Flag-Osx WT or K55R and K386R with Myc-CHIP; blot read after short and long exposure; told only in the discussion, set-up not described.
For assay [3] the target is unchanged. Briefly: co-IP; 293T cells co-expressing Flag-Osx and Myc-CHIP, lysates 48 h after transfection; IP with anti-Flag, blot with anti-Myc; with 20 uM MG132 for 6 hrs.
The target in assay [4] is endogenous Osx (osterix) of MC3T3-E1 cells (mouse (endogenous in MC3T3-E1)) (UniProt Q8VI67). Description: co-IP; MC3T3-E1 cells with Myc-CHIP; endogenous Osx precipitated with anti-Osx antibody, Myc-CHIP found in the precipitate.
Assay [5] has the same target. Description: co-IP; endogenous CHIP and endogenous Osx in MC3T3 cells.

As for “HA-tagged CHIP (C terminus of Hsc70-interacting protein), in 293T cells (from UniProt Q9WUD1 1-304) (enzyme)”, the binding entry in assay [1] is “binds”. Turning to “Myc-tagged CHIP (C terminus of Hsc70-interacting protein), in HEK293T cells (from UniProt Q9WUD1 1-304) (enzyme)”, the binding entry in assay [2] and in assay [3] was “binds” each time. Regarding “Myc-tagged CHIP (C terminus of Hsc70-interacting protein), in MC3T3-E1 cells (from UniProt Q9WUD1 1-304) (enzyme)”, the binding entry in assay [4] was “binds”. In the case of “endogenous CHIP (C terminus of Hsc70-interacting protein) of MC3T3 cells (from UniProt Q9WUD1 1-304) (enzyme)”, the binding entry in assay [5] is listed as “binds”.
